From the supplement of paper PMC7666118
This is one part of the list.

Amino acid sequences for entries named in this document (tags omitted). A change or cut given only in a name is not applied to a line headed by its entry.
UniProt P50213: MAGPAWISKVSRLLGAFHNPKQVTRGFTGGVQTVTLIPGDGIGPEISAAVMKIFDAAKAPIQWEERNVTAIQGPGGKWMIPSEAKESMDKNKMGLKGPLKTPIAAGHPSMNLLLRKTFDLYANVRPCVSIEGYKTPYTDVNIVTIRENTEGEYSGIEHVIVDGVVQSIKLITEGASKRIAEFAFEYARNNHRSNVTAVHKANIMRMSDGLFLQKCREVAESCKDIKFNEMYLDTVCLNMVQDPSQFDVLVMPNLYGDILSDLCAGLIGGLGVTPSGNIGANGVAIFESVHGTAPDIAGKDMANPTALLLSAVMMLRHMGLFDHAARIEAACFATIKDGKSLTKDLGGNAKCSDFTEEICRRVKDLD
UniProt Q9BVA0, whole entry: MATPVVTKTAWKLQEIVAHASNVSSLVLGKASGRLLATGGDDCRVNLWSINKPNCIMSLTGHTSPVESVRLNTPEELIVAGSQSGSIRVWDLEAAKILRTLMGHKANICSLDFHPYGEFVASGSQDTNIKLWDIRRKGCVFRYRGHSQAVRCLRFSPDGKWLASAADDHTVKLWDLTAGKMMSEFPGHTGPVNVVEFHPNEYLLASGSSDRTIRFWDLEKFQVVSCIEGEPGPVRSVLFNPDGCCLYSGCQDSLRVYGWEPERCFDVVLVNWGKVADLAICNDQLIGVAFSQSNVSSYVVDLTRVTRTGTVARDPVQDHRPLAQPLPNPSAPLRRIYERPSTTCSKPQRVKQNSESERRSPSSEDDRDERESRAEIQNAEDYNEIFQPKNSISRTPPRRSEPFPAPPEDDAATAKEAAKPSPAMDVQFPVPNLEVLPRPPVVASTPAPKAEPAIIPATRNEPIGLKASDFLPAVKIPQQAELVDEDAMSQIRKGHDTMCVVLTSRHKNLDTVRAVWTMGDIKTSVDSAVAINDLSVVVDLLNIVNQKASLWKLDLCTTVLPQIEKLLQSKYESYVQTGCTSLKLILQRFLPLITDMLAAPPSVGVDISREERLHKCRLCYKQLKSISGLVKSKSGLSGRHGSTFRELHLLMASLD
UniProt Q53GQ0: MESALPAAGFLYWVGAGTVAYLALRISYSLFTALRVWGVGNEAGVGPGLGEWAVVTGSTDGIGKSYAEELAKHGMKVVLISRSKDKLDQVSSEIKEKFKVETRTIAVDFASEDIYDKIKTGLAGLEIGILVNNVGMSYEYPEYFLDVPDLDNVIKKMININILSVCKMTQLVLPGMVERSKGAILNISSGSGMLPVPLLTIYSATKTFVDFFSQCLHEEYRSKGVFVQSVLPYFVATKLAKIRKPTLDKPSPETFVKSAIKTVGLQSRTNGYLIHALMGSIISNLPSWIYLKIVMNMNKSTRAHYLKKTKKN
UniProt Q86YV9: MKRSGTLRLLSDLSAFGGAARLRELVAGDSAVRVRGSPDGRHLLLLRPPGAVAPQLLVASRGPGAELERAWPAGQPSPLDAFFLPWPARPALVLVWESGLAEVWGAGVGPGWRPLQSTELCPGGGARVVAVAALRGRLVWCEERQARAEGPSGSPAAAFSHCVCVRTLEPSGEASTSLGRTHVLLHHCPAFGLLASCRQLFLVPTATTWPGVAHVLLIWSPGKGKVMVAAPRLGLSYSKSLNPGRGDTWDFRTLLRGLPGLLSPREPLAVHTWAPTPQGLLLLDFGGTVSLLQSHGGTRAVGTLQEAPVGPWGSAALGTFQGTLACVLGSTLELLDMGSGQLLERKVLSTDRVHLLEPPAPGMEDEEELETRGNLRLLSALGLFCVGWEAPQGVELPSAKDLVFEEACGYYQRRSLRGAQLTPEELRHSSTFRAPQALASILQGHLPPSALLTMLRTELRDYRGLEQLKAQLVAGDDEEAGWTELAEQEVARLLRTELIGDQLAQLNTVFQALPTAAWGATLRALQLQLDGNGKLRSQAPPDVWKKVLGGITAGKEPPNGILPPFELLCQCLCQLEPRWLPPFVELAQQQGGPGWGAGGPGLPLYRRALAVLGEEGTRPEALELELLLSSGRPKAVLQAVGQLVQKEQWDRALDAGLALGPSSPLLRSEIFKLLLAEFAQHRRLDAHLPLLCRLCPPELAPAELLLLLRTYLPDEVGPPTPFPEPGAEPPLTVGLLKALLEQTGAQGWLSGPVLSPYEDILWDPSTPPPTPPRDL
UniProt Q14103: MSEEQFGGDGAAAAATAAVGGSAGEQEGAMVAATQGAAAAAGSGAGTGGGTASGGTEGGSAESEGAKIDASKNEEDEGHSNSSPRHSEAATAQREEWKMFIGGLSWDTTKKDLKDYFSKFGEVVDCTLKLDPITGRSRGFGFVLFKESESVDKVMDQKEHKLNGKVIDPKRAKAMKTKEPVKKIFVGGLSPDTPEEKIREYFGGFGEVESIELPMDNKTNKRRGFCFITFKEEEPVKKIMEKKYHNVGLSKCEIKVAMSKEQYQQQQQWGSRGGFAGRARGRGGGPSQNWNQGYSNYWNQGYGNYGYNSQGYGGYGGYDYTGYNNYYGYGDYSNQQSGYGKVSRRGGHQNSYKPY
UniProt Q13151: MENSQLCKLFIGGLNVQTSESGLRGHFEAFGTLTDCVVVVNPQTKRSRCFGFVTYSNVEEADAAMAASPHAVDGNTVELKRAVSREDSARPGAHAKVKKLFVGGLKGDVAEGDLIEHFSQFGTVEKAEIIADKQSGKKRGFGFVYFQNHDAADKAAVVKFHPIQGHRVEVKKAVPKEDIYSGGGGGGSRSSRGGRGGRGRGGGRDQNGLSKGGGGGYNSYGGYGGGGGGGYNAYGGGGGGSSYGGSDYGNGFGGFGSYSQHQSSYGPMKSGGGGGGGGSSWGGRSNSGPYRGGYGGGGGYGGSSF
UniProt P15260: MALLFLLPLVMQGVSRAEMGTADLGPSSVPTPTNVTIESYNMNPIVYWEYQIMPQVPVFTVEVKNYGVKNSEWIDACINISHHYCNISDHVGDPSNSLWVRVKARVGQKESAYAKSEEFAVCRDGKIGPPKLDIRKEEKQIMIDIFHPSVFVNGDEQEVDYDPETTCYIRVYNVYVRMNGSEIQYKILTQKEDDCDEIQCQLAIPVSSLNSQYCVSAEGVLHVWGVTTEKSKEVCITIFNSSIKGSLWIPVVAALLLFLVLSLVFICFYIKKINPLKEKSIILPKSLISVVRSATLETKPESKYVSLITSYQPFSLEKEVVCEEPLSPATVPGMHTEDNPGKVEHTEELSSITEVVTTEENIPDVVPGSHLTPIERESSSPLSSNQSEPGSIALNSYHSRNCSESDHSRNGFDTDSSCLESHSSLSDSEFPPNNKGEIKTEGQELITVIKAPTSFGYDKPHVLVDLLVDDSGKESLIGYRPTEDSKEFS
UniProt P09429: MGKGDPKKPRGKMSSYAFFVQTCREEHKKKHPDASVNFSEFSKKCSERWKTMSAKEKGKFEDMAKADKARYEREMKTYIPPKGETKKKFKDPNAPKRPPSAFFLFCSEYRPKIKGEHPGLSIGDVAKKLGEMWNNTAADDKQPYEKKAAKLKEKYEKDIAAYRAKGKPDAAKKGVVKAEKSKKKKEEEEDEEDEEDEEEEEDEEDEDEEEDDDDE
UniProt O76095: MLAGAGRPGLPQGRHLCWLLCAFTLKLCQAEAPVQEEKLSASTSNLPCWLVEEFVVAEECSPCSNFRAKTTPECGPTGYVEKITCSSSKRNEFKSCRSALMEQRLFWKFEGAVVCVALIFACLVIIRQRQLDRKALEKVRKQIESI
UniProt P14866: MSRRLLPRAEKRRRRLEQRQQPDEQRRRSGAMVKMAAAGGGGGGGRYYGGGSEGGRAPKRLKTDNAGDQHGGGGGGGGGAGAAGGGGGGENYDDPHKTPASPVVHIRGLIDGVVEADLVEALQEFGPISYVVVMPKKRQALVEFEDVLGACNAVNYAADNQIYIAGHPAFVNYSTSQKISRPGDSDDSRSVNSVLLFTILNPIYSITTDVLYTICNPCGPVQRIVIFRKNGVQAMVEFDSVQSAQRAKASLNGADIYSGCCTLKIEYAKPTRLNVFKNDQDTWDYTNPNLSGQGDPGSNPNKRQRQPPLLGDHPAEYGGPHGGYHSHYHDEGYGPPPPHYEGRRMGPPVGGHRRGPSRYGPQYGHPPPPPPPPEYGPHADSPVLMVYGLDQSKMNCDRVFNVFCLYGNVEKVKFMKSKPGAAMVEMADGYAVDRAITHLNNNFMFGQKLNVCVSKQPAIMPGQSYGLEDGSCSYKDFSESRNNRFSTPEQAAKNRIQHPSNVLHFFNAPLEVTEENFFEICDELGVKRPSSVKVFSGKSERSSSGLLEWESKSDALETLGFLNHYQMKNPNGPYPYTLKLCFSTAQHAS
UniProt Q96AB3: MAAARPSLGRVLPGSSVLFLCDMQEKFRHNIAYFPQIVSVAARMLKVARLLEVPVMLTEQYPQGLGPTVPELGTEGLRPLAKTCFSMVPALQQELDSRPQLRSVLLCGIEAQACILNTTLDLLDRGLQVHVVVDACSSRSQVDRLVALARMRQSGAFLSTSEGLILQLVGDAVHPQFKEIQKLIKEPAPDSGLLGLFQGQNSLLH
UniProt P80217: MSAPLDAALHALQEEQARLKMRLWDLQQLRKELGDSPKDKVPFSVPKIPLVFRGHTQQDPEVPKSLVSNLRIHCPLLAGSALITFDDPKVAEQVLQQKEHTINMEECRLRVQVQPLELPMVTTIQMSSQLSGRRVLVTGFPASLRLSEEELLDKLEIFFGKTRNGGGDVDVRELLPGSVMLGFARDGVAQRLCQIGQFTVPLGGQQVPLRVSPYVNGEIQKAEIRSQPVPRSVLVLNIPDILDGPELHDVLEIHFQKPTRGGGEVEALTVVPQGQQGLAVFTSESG
UniProt Q68E01, whole entry: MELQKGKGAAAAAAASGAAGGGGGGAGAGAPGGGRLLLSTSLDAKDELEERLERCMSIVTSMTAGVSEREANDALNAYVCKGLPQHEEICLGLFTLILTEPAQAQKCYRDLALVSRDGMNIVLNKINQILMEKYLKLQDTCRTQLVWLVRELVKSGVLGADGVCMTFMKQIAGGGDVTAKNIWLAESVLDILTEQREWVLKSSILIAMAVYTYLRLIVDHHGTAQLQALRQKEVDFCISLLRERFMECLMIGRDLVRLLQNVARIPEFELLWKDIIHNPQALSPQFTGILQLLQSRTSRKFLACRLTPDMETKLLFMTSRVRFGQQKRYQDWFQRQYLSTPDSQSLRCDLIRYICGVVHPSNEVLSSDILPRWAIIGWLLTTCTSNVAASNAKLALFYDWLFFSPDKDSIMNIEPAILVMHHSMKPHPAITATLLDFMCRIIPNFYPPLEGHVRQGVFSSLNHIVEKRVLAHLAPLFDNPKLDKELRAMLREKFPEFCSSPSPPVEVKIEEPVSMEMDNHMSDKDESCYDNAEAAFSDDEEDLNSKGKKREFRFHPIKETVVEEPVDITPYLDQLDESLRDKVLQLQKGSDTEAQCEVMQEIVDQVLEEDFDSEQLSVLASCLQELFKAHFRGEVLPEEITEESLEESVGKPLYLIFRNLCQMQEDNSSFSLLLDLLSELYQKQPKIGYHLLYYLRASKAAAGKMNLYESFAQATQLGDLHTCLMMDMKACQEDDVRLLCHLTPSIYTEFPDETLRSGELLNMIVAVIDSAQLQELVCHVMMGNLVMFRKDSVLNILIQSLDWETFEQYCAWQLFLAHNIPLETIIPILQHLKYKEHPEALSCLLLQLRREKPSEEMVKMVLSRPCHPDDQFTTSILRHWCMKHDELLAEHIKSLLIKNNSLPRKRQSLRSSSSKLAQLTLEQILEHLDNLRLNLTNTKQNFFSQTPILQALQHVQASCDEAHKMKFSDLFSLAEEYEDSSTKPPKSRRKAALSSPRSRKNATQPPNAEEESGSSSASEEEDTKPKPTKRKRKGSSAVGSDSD
UniProt O94819: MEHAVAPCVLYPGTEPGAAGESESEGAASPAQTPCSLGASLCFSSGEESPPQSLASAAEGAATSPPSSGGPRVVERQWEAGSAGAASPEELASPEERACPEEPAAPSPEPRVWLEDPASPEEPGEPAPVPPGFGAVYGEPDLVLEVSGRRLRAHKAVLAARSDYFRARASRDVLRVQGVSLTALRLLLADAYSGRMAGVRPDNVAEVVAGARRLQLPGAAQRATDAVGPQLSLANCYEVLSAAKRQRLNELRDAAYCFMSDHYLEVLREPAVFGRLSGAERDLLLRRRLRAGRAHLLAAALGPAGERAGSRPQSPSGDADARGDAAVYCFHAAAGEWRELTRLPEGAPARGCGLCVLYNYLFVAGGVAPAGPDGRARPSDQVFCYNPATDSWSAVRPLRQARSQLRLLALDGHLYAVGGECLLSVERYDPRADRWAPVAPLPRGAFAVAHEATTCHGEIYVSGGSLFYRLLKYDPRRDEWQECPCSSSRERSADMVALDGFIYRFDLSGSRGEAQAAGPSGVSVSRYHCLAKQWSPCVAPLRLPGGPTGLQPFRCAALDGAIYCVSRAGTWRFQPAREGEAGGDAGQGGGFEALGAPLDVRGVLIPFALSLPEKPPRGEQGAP
UniProt Q13907: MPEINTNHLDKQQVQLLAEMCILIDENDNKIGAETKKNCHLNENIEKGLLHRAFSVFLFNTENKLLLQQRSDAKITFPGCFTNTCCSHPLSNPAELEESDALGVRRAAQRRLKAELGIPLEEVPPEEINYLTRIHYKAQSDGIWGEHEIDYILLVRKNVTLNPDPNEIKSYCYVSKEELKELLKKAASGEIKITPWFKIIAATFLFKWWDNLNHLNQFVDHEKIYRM

These targets were tested with COc1ccc(Cn2ccc3ccc(C(=O)NO)cc32)cc1 (assay: dose-dependent thermal stabilisation call (2D-TPP, DLPTP, 10% FDR) (binary (1 = stabilised)); higher = stabilised by the compound). Settings: system: HL-60 intact cells; concentration range 0.04-10 µM.

Target	dose-dependent thermal stabilisation call
IQCB1 (UniProt Q15051)	inactive: 0
HSD17B10 (UniProt Q99714)	inactive: 0
KANK1 (UniProt Q14678)	inactive: 0
IDH3A (UniProt P50213)	inactive: 0
ITPR3 (UniProt Q14573)	inactive: 0
KIAA0406 (UniProt O43156)	inactive: 0
IQGAP3 (UniProt Q86VI3)	inactive: 0
KATNB1 (UniProt Q9BVA0)	inactive: 0
HSD17B12 (UniProt Q53GQ0)	active: 1
HNRNPUL2 (UniProt Q1KMD3)	inactive: 0
INTS8 (UniProt Q75QN2)	inactive: 0
ITFG3 (UniProt Q9H0X4)	inactive: 0
HPS6 (UniProt Q86YV9)	inactive: 0
HMBS (UniProt P08397)	inactive: 0
HYPK (UniProt Q9NX55)	inactive: 0
HNRNPD (UniProt Q14103)	inactive: 0
HNRNPA0 (UniProt Q13151)	inactive: 0
IFNGR1 (UniProt P15260)	inactive: 0
HMGB1 (UniProt P09429)	inactive: 0

Random excerpt: two entries already listed
Target	dose-dependent thermal stabilisation call
HMBS (UniProt P08397)	inactive: 0
IDH3A (UniProt P50213)	inactive: 0

Remaining list, next part:

Target	dose-dependent thermal stabilisation call
JTB (UniProt O76095)	inactive: 0
ISL2 (UniProt Q96A47)	inactive: 0
HNRNPL (UniProt P14866)	inactive: 0
ISOC2 (UniProt Q96AB3)	inactive: 0
KIAA0020 (UniProt Q15397)	inactive: 0
HPCAL1 (UniProt P37235)	inactive: 0
IFI35 (UniProt P80217)	inactive: 0
KCTD15 (UniProt Q96SI1)	inactive: 0
JMJD1C (UniProt Q15652)	inactive: 0
HMGXB4 (UniProt Q9UGU5)	inactive: 0
INTS3 (UniProt Q68E01)	inactive: 0
KBTBD11 (UniProt O94819)	inactive: 0
HRSP12 (UniProt P52758)	inactive: 0
IFT140 (UniProt Q96RY7)	inactive: 0
IPO7 (UniProt O95373)	inactive: 0
IFT20 (UniProt Q8IY31)	inactive: 0
KIAA0391 (UniProt O15091)	inactive: 0
IDI1 (UniProt Q13907)	inactive: 0
ICAM3 (UniProt P32942)	inactive: 0
